Experimental data taken from publication PMC3102665, “A Sir2-Like Protein Participates in Mycobacterial NHEJ” (PLoS ONE, 2011).
These are yes or no findings as the source states them, for the method shown. Some results given as binding are weak or reduced against the parent protein; the word gives no strength. Sequences can lack the tags named with a protein.

Target: T1, GST-MsmSir2 fusion protein (M. smegmatis) (UniProt A0R2N3)
T1 sequence: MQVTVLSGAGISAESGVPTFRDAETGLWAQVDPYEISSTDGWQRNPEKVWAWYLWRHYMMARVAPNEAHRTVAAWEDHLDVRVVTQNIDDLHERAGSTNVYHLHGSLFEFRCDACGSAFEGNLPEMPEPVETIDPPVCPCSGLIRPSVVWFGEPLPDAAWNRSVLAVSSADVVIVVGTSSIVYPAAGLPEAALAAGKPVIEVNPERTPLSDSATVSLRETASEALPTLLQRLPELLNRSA
Assay: pull-down; GST fusion held on glutathione-Sepharose 4B beads, incubated with purified His-tagged protein at 4°C for 8 h in 50 mM Tris-HCl pH 7.5, 200 mM NaCl, 10% glycerol; washes with 0.1% Nonidet P-40; Western blot with anti-His-tag antibody; both purified

B1: His-MsmKu protein (protein, UniProt A0R3S7 1-318)
chain: MRSIWKGSIAFGLVNVPVKVYSATEDHDIKFHQVHAKDNGRIRYKRVCEVCGEVVEYRDINKAFESDDGQMVVITDEDIATLPEERSREIEVVEFIPAEQLDPLMYDKSYFLEPDSKSSKSYVLLAKTLAETDRIAIVHFSLRNKSRLAALRVKDFSKRDVMMIHTLLWPDEIRDPDFPILDKEVQIKPAELKMAGQVVESMTDDFKPDLYHDDYQEQLRELVQAKLEGGEAFSVEEQPAELDEGTEDVSDLLAKLEASVKARKGGKSDSKDDSDSESDSKESKSDSKPAKKAPAKKAAAKKSTAKKAPAKKAAAKKS
Q: With B1 as the binder, how does the binding read?
A: binds
